These results are taken from PubChem BioAssay AID330 (DTP/NCI, 2004).

For the assay, the system named is P388 leukemia ip, CD2F1 mice, survival T/C. Kind of assay: NCI In Vivo Anticancer Drug Screen. Data for tumor model P388 Leukemia (intraperitoneal) in CD2F1 (CDF1) mice. The conditions noted are these: T/C endpoint: median survival time, higher T/C = longer survival.
Where [1] appears, read: dose: 240.0 mg/kg/injection, schedule: Q01DX005 (ip), vehicle: Klucel (hydroxypropylcellulose) (HPC).
Setting [2] is: dose: 200.0 mg/kg/injection, schedule: Q01DX009 (ip), vehicle: Klucel (hydroxypropylcellulose) (HPC).
Where [3] appears, read: dose: 100.0 mg/kg/injection, schedule: Q01DX005 (ip), vehicle: saline with Tween-80.
Setting [4] is: dose: 200.0 mg/kg/injection, schedule: Q01DX005 (ip), vehicle: saline with Tween-80.
[5] abbreviates: dose: 60.0 mg/kg/injection, schedule: Q01DX005 (ip), vehicle: saline with Tween-80.
Where [6] appears, read: dose: 120.0 mg/kg/injection, schedule: Q01DX005 (ip), vehicle: saline with Tween-80.
The mark [7] stands for this setting: dose: 200.0 mg/kg/injection, schedule: Q01DX005 (ip), vehicle: saline.
[8] abbreviates: dose: 50.0 mg/kg/injection, schedule: Q01DX009 (ip), vehicle: saline with Tween-80.
The mark [9] stands for this setting: dose: 100.0 mg/kg/injection, schedule: Q04DX003 (ip), vehicle: saline.
[10] abbreviates: dose: 200.0 mg/kg/injection, schedule: Q01DX009 (ip), vehicle: saline with Tween-80.
Setting [11] is: dose: 240.0 mg/kg/injection, schedule: Q01DX005 (ip), vehicle: saline with Tween-80.

The list is a part of this screen's results and no random one: it is rich in T/C values a quarter to a half above the control, in often repeated tests (any T/C) and in doses without a T/C. Further doses and runs are listed elsewhere. T/C is the treated group as % of the vehicle group. Some entries give survivors of the animals treated and no T/C: the source files T/C as zero there, which appears to mark a toxic dose or a test without result, not a measured value. Some doses without a T/C left all or most animals alive at the check, yet need not have been tolerated: survival well below the control is almost never listed, so the zero probably covers shortened survival too. Survivors were counted at the toxicity check, usually on the fifth day, unless a day is given; later deaths do not show. Schedule codes are those of the source, read here as Q, the interval in days (D) or hours (H), X, the number of doses. Marks such as (2×) say how often a value occurs here. For survival time, the PubChem record calls one and a half times the control and up active, and a quarter to a half above the control has no call in these data; cut-offs in other NCI protocols can differ. Some T/C values carry the count of animals alive at the toxicity check (mostly the fifth day); where none is given, no animal had died by that day.

On to `CC(=O)C1CCC2=C(C1)C(=O)c1cc3c(cc1C2=O)C1(c2ccccc2)OC3(c2ccccc2)C2C(=O)N(c3ccccc3)C(=O)C21` (stereo not drawn), for which the survivor count under setting [1] is on record as 6 of 6.
Consider `O=C(O)c1ccccc1SSc1ccccc1C(=O)O`, for which the survivor count is given as 4 of 6 under setting [2] and 0 of 6 (dose: 400.0 mg/kg/injection, schedule: Q01DX009 (ip), vehicle: Klucel (hydroxypropylcellulose) (HPC)).
For the molecule `C=C(C#N)N(C)c1ccccc1`, the survivor count reads like this: (dose: 50.0 mg/kg/injection, schedule: Q01DX005 (ip), vehicle: Klucel (hydroxypropylcellulose) (HPC)) 0 of 6; (dose: 100.0 mg/kg/injection, schedule: Q01DX005 (ip), vehicle: Klucel (hydroxypropylcellulose) (HPC)) 0 of 6; (dose: 200.0 mg/kg/injection, schedule: Q01DX005 (ip), vehicle: Klucel (hydroxypropylcellulose) (HPC)) 0 of 6.
With `CCC(=O)c1cc2ccccc2c2ccccc12`, the survivor count by setting is: under setting [3], 0 of 5; under setting [4], 0 of 5.
As for `c1cnc2nsnc2c1`, the survivor count is, setting by setting: (dose: 100.0 mg/kg/injection, schedule: Q01DX009 (ip), vehicle: Klucel (hydroxypropylcellulose) (HPC)) 5 of 6; under setting [2], 0 of 6.
For the molecule `Cc1ccc(C)c([N+](=O)[O-])c1C(=O)O`, the survivor count (dose: 400.0 mg/kg/injection, schedule: Q04DX003 (ip), vehicle: saline + alcohol) is 5 of 6.
In the case of `Brc1ccc(CC[P+](c2ccccc2)(c2ccccc2)c2ccccc2)cc1`, the survivor count runs as follows: (dose: 200.0 mg/kg/injection, schedule: Q04DX003 (ip), vehicle: Klucel (hydroxypropylcellulose) (HPC)) 0 of 6; (dose: 400.0 mg/kg/injection, schedule: Q04DX003 (ip), vehicle: Klucel (hydroxypropylcellulose) (HPC)) 0 of 6.
With `CC(C)(C)c1ccc(-c2cc3nc(C(F)(F)F)cc(=O)n3[nH]2)cc1`, the survivor count runs as follows: (dose: 30.0 mg/kg/injection, schedule: Q01DX005 (ip), vehicle: saline with Tween-80) 6 of 6; under setting [5], 6 of 6; under setting [6], 6 of 6.
`[Co].[N-]=C=S.[N-]=C=S.[N-]=C=S.[NH2-].[NH2-].[NH2-]`: the survivor count is given as 1 of 6 under setting [7]; 0 of 5 (dose: 400.0 mg/kg/injection, schedule: Q01DX001 (ip), vehicle: saline with Tween-80); 0 of 6 (dose: 400.0 mg/kg/injection, schedule: Q01DX005 (ip), vehicle: saline).
In the case of `COC(=O)C1CC2C(=O)N(C)C(Br)C(Br)C12` (stereo not drawn), the survivor count (dose: 400.0 mg/kg/injection, schedule: Q04DX002 (ip), vehicle: saline) is 2 of 6.
Take `NC(CSC(c1ccccc1)(c1ccccc1)c1ccc(CO)cc1)C(=O)O` (stereo not drawn): the T/C reads like this: (dose: 25.0 mg/kg/injection, schedule: Q01DX009 (ip), vehicle: saline with Tween-80) 136 % of control; under setting [8], 136 % of control.
Turning to `[Ni].[O-][Cl+3]([O-])([O-])O.[O-][n+]1ccnc2ccccc21`, the T/C under setting [9] is 128 % of control [5 of 6 alive]. Moreover, the survivor count reads like this: under setting [9], 0 of 6; (dose: 200.0 mg/kg/injection, schedule: Q04DX003 (ip), vehicle: saline) 0 of 6 (2×); (dose: 400.0 mg/kg/injection, schedule: Q04DX003 (ip), vehicle: saline) 0 of 6 (2×).
Take `CCOC(=O)c1cc2c(=O)oc3ccccc3c2oc1=O`: the survivor count under setting [8] is 6 of 6; the survivor count (dose: 100.0 mg/kg/injection, schedule: Q01DX009 (ip), vehicle: saline with Tween-80) is on record as 6 of 6; the survivor count under setting [10] is recorded as 6 of 6.
Regarding `CCCCCCCCCCCCCCCCCC(=O)NN`, the survivor count (dose: 50.0 mg/kg/injection, schedule: Q04DX003 (ip), vehicle: saline with Tween-80) is recorded as 6 of 6.
Turning to `CCC1CN1P(=O)(Oc1ccc2ccccc2c1)N1CC1CC` (stereo not drawn), the T/C by setting is: (dose: 22.0 mg/kg/injection, schedule: Q01DX009 (ip), vehicle: saline with Tween-80) 137 % of control; (dose: 33.0 mg/kg/injection, schedule: Q01DX009 (ip), vehicle: saline with Tween-80) 132 % of control; (dose: 44.0 mg/kg/injection, schedule: Q01DX009 (ip), vehicle: saline with Tween-80) 127 % of control; (dose: 66.0 mg/kg/injection, schedule: Q01DX009 (ip), vehicle: saline with Tween-80) 131 % of control; (dose: 100.0 mg/kg/injection, schedule: Q04DX003 (ip), vehicle: saline with Tween-80) 136 % of control [4 of 6 alive]. Also, the survivor count (dose: 400.0 mg/kg/injection, schedule: Q01DX009 (ip), vehicle: saline with Tween-80) was 4 of 6.
As to `OCCN(CCO)Cc1cccc2ccccc12`, the survivor count under setting [4] is 3 of 6.
On to `CC[As](CCO)SC1CC(OC(=O)c2ccccc2)C(OC(=O)c2ccccc2)C(COC(=O)c2ccccc2)O1` (stereo not drawn), for which the T/C (dose: 100.0 mg/kg/injection, schedule: Q01DX009 (ip), vehicle: saline + alcohol) is 127 % of control. In addition, the survivor count runs as follows: (dose: 200.0 mg/kg/injection, schedule: Q01DX009 (ip), vehicle: saline + alcohol) 0 of 6; under setting [10], 6 of 6.
For `CCOc1ccc(N2C(N)=NC(N)=NC2(C)C)cc1`, the survivor count is 0 of 5 under setting [3] and 0 of 5 under setting [4].
On to `CCCC(O)CNCc1ccnc2ccc(OC)cc12` (stereo not drawn), for which the survivor count under setting [7] was 0 of 5.
As to `Cc1cc(O)ccc1O`, the survivor count (dose: 400.0 mg/kg/injection, schedule: Q01DX009 (ip), vehicle: saline) is 0 of 6 and the survivor count (dose: 600.0 mg/kg/injection, schedule: Q01DX009 (ip), vehicle: saline) is 0 of 6.
On to `COc1ccc2nc3cc(Cl)ccc3c(NCCCC3CCCN4CCCCC34)c2c1` (stereo not drawn), for which the survivor count reads like this: under setting [5], 3 of 6; under setting [6], 3 of 6; under setting [11], 0 of 6.
On to `C=CCC(C(=O)OCCN(CC)CC)(c1ccccc1)c1ccccc1`, for which the survivor count reads like this: (dose: 0.75 mg/kg/injection, schedule: Q01DX009 (ip), vehicle: saline) 6 of 6; (dose: 1.5 mg/kg/injection, schedule: Q01DX009 (ip), vehicle: saline) 6 of 6; (dose: 3.0 mg/kg/injection, schedule: Q01DX009 (ip), vehicle: saline) 6 of 6; (dose: 6.0 mg/kg/injection, schedule: Q01DX009 (ip), vehicle: saline) 6 of 6; (dose: 12.0 mg/kg/injection, schedule: Q01DX009 (ip), vehicle: saline) 6 of 6.
Turning to `COc1ccc(/C(O)=C/c2nc3cccc([N+](=O)[O-])c3[nH]c2=O)cc1`, the survivor count reads like this: under setting [6], 6 of 6; under setting [11], 6 of 6.
Regarding `NC(=S)N=Nc1c(O)n(CCCO)c2ccccc12`, under setting [1], the survivor count is recorded as 1 of 6.
Consider `CC(C)CCN=Cc1ccccc1O.CC(C)CCN=Cc1ccccc1O.[Zn]`, for which, under setting [2], the survivor count is on record as 2 of 6.
On to `COC(=O)Nc1csc2c1NC(=O)CCCC2`, for which the T/C (dose: 100.0 mg/kg/injection, schedule: Q04DX003 (ip), vehicle: Klucel (hydroxypropylcellulose) (HPC)) is 142 % of control.
